Among the data in paper PMC4863600 are binding values, retold here.

No constants are given. Whether binding was seen depends on the method and setting. Binding seen in cells or lysates may run through a third protein. Here binding means that the protein was enriched with, or labelled near, the bait; the list need not be complete. A no says only that the protein was not detected with the bait. Tags and fused reporters may be left off the sequences shown.

B1: DNA gyrase subunit A (protein, UniProt Q9RT53 1-812)
chain: MTGIQPVDITSEVKTNFINYAMNVIVDRALPDVRDGMKPVQRRIMYAMLQEGLASNVKHAKSASVVGEVMKRYHPHGDSSIYDAMVRLGQWWNMRYTLVDPQGNFGSMDGDMAAAMRYTEARMTKVAEEILADLEKETVDLKPNYDETTTEPTVLPSAVPNLLINGASGIAVGMATNIPPHNLTEISNGLLALIDNPAITLDEMMTHVQGPDFPTGGRIAKVGIREAYATGHAGLKVRGKARIEEGKNGRTQIIISEIPYQLNKTNLLQTISAMYKAGKIPDIGALRDESDRKEPVRIVIELKRSAAGMGTLVLNQLYKYTQLQSSYTVMNLSIVNGEPRVLPLIDTMRYFLDHRRDVVTRRTVYDLRKAKERAHVLEGLLKALDHIDEVISLIRASNTGAEARDGLMARFGLSEIQAQAILDMRLQRLVGLEREKLQGEYDELQKTITRLESILGDEKLLWREIKKEIRDIRDRYGDARRSVITELEEDINKEDLIAVEDMVITMTRAGYVKRTNLTAYREQKRGGRGSSGGKLREEDANTGVFVGSTHDYLLFFTDQGRVFHEKIYDLPEAGRDAKGTHIRNLLPGLRDDENIASVLSVSGFDQPGSFIFATKSGVIKKSLITDYANITSAGLIAINLQPGDELIGVDIQQDGDDVVLATKNGQAMRFEATLVRDTGRATQGVIGIRLREGDEVVSMALVPGNDEEGELLAISECGLGKRTKVSDYPSKGRGGLGVITLDVTDKTGKLVTLAHVAGNEELMVLTEKGTVIRTRVEEVRVTGRNAQGVKVINIGDKDRVIDAFPIRKEDEL
B2: 30S ribosomal protein S1 (protein, UniProt Q9RSY6 1-629)
chain: MQHRYQARPGAFQREGFRPGGQEFMEDNTQTPAVNGGTQPTTGDTSTQQAEGTQLDQETQSHQGALNAQTEQAQTEVSQGEQARQQEQAAKTQAQEERDYPEMTMEDILAAEAQEPQSVTRGDIVDGTVVFIGQEGIAVDIGAKVEGVIPLNQLGEEPVTLEQAQEMYKPGDAIEAYVVRVDLPNSQIVLSKKRAEQDKGWRVLERMQEADEAFEVEVLEKVRGGLVAQVEGIRAFLPASQVDTRRVNDLDPYVGKPLMVKLIELNRKRNRVIISHRAIMEAEKAKAREATVGQLEPGAVFEGEVVEITDFGVFVNLGGIDGLVHRSELTYGRFNHPRDVVKVGDKVQVQVIDVDEGRERINLSMKALTQDPWEGATERYHIGQRVKGKVTNLTNFGAFIELEPGLEGLVHVSEMSWTKRVRHPNEVMKEGDEVEAVILRIDPRERRISLGIRQTTDDPWSALPDRYPPGTPVKGKITGMTDFGVFMEIEEGIEGLIHISELDTQRVNNPADLFKKGDEIEAVILNIDPVEQRASLSRRRFLGGGPVPQRGEGGQRDYVSQGGGSRRDSTFGGGQRGGRGGRGGADYAYNAKDAQQGGKISTKLGDVYADLFAQFGLGNDKKDEGSSEE
B3: Chaperonin groEL (protein, UniProt Q9RWQ9 1-548)
chain: MAKQLVFDESARRSLERGVNAVANAVKVTLGPRGRNVVIEKKFGSPTITKDGVTVAKEVELEDKLENIGAQLLKEVASKTNDITGDGTTTATVLGQAIVKEGLRNVAAGANPLALKRGIDKAVAVAIEEIKKLAVSVEDSEAIKKVAGISANDETVGQEIASAMDKVGKEGVITIEESKGFDTEVDVVEGMQFDKGFINPYFITNPEKMEAVLEDAYILINEKKISNLKDMLPVLEKVAQTGRPLLIIAEDVEGEALATLVVNKLRGTLNIAAVKAPGFGDRRKEMLRDIAAVTGGEVVSEDLGHKLENVGMEMLGRAARIRITKDETTIVDGKGEQAQIDARVNAIKGELDSTDSDYAREKLQERLAKLSGGVAVIRVGAATETELKEKKHRYEDALSTARSAVEEGIVAGGGTTLLRVIPAVRKAAESLTGDEATGARILIRALEEPARQIAANAGEEGSVIVNAVVGSDKARYGFNAATGEYVEDMVAAGIVDPAKVTRTALQNAASIGALILTTEAIVSDKPEKAAPAMPQGGGDMGGMGGMDF
B4: DnaK (protein, UniProt Q9RY23 1-628)
chain: MAKAVGIDLGTTNSVIAVMEGGRPEVIVNAEGGRTTPSVVAYKGDEILVGQIARRQAALNPAATLFEVKRFIGRRWDEVKEEAARSPFTVKEGPSGSVRIEVNGKDLAPEQVSAEVLRKLVSDASAKLGNKITDAVITVPAYFDNSQREATRQAGEIAGLNVLRVINEPTAAALAYGLERKGNETVLVFDLGGGTFDVTILELGDGVFEVKSTAGDTHLGGADFDYRIVDWLAGEFQKEHNFDLRKDKQALQRLIEAAEKAKIDLSNASETSISLPFITFDPETRTPMHLERSLSRAKFEELTADLLRRVRQPVEQALSDAKLSAGDINEVILVGGSTRIPAVKRIVQDLVGKTPNESVNPDEAVALGAAVQAGIIQGDSSLGDIVLVDVTPLTLGVEVKGGMIAPMITRNTTVPAKKTEIYTTAENNQPGVEINVLQGERPMAADNKSLGRFKLEGIPPMPAGRAQIEVTFDIDANGILHVTAKEKTSGKESSITIENTTTLDKTDVERMVQEAEQNAAADKQRKEKVEKRNNLDSLRVQAVQQLEEQEGAAQDAKDRLKAAADEAEEAVRSEDDSKIADAQKKLEEELRSFMTANQASTQGQPEGTQAQANKADDDVIDADFKPAE
B5: SSB (protein, UniProt Q9RY51 1-301)
chain: MARGMNHVYLIGALARDPELRYTGNGMAVFEATVAGEDRVIGNDGRERNLPWYHRVSILGKPAEWQAERNLKGGDAVVVEGTLEYRQWEAPEGGKRSAVNVKALRMEQLGTQPELIQDAGGGVRMSGAMNEVLVLGNVTRDPEIRYTPAGDAVLSLSIAVNENYQDRQGQRQEKVHYIDATLWRDLAENMKELRKGDPVMIMGRLVNEGWTDKDGNKRNSTRVEATRVEALARGAGNANSGYAAATPAAPRTQTASSAARPTSGGYQSQPSRAANTGSRSGGLDIDQGLDDFPPEEDDLPF
B6: DNA polymerase I (protein, UniProt P52027 1-956)
chain: MVFCGDGGLSCESIDFALCCLRGRSGNYVQSRILPMADASPDPSKPDTLVLIDGHALAFRSYFALPPLNNSKGEMTHAIVGFMKLLLRLARQKSNQVIVVFDPPVKTFRHEQYEGYKSGRAQTPEDLPGQINRIRALVDALGFPRLEEPGYEADDVIASLTRMAEGKGYEVRIVTSDRDAYQLLDEHVKVIANDFSLIGPAQVEEKYGVTVRQWVDYRALTGDASDNIPGAKGIGPKTAAKLLQEYGTLEKVYEAAHAGTLKPDGTRKKLLDSEENVKFSHDLSCMVTDLPLDIEFGVRRLPDNPLVTEDLLTELELHSLRPMILGLNGPEQDGHAPDDLLEREHAQTPEEDEAAALPAFSAPELAEWQTPAEGAVWGYVLSREDDLTAALLAAATFEDGVARPAPVSEPDEWAQAEAPENLFGELLPSDKPLTKKEQKALEKAQKDAEKARAKLREQFPATVDEAEFVGQRTVTAAAAKALAAHLSVRGTVVEPGDDPLLYAYLLDPANTNMPVVAKRYLDREWPADAPTRAAITGHLLRELPPLLDDARRKMYDEMEKPLSGVLGRMEVRGVQVDSDFLQTLSIQAGVRLADLESQIHEYAGEEFHIRSPKQLETVLYDKLELASSKKTKLTGQRSTAVSALEPLRDAHPIIPLVLEFRELDKLRGTYLDPIPNLVNPHTGRLHTTFAQTAVATGRLSSLNPNLQNIPIRSELGREIRKGFIAEDGFTLIAADYSQIELRLLAHIADDPLMQQAFVEGADIHRRTAAQVLGLDEATVDANQRRAAKTVNFGVLYGMSAHRLSNDLGIPYAEAATFIEIYFATYPGIRRYINHTLDFGRTHGYVETLYGRRRYVPGLSSRNRVQREAEERLAYNMPIQGTAADIMKLAMVQLDPQLDAIGARMLLQVHDELLIEAPLDKAEQVAALTKKVMENVVQLKVPLAVEVGTGPNWFDTK

The target of this test is T1, PprA::HA fusion protein (D. radiodurans) (UniProt O32504).
T1 sequence: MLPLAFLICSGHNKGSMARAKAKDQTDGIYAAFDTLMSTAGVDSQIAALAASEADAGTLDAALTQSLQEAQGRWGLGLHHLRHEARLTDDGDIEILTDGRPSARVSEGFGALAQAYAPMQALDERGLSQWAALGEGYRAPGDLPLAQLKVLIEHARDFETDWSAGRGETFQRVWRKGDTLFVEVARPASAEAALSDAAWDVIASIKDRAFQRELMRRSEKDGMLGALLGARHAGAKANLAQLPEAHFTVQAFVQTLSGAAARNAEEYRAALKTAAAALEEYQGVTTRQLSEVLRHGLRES
As to the kind of experiment: affinity purification with mass spectrometry; anti-HA immunoprecipitation (protein G magnetic beads) of PprA::HA from extracts of D. radiodurans GY14615 exposed to 3.8 kGy gamma radiation and recovered 110 min; lysis buffer A (50 mM Tris pH 7.5, 100 mM NaCl, 5 mM MgCl2, 1 mM DTT, 0.5% Triton X-100), 10°C; shotgun MS-MS; compared with nonirradiated cells and with irradiated ΔpprA cells.
In the case of B1, the binding entry is recorded as “binds”.
The entry for B2 is “binds”; for B3 it is “binds”.
The entry for B4 is “no binding”; for B5 it is “no binding”.
The entry for B6 is “no binding”.
